From PMC5729022
These are yes or no findings as the source states them, for the method shown. Some entries that bind do so weakly or less than the wild type.

The chains behind the UniProt entries cited, without tags or fusion partners. Where a name states a change or a piece, a line headed by the entry shows the natural chain unless it says otherwise. Residues count along the entry.
UniProt P02453: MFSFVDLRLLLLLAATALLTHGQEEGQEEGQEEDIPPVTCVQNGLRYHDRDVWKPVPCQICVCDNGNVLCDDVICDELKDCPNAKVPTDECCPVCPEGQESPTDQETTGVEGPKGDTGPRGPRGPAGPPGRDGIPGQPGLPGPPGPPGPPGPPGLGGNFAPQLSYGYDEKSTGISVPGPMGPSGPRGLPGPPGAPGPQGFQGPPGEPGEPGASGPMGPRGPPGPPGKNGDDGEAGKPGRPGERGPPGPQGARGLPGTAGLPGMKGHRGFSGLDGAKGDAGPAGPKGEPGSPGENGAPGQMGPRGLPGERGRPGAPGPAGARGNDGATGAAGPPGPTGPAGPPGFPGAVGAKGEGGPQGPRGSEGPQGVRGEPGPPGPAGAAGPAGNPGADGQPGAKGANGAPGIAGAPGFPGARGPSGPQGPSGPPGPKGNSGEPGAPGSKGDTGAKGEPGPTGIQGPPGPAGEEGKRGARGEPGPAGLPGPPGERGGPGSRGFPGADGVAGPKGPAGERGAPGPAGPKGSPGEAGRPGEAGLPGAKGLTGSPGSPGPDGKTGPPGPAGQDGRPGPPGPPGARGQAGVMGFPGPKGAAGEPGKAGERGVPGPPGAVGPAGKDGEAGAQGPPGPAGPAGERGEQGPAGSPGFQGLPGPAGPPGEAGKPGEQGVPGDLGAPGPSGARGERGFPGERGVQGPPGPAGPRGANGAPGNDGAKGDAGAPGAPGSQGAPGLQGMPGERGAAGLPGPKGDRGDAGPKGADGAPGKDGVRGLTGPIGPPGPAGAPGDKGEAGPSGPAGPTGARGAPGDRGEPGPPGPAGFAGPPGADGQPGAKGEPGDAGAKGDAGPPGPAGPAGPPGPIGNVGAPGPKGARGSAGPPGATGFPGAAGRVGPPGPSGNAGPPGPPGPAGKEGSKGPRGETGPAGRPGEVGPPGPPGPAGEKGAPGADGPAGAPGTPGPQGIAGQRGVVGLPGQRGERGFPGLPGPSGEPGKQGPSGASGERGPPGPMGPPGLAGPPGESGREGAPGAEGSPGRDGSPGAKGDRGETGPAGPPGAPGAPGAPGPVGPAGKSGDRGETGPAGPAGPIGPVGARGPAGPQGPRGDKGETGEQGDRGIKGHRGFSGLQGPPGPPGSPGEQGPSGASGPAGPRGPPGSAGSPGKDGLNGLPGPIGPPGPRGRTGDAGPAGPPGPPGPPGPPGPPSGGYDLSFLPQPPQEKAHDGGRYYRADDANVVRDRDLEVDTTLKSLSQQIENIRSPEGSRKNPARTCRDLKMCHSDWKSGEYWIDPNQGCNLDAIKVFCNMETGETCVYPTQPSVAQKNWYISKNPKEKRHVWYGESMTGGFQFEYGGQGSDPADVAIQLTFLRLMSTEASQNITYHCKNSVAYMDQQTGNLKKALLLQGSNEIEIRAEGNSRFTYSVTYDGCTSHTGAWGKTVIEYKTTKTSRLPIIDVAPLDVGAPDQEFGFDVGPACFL
UniProt P02465: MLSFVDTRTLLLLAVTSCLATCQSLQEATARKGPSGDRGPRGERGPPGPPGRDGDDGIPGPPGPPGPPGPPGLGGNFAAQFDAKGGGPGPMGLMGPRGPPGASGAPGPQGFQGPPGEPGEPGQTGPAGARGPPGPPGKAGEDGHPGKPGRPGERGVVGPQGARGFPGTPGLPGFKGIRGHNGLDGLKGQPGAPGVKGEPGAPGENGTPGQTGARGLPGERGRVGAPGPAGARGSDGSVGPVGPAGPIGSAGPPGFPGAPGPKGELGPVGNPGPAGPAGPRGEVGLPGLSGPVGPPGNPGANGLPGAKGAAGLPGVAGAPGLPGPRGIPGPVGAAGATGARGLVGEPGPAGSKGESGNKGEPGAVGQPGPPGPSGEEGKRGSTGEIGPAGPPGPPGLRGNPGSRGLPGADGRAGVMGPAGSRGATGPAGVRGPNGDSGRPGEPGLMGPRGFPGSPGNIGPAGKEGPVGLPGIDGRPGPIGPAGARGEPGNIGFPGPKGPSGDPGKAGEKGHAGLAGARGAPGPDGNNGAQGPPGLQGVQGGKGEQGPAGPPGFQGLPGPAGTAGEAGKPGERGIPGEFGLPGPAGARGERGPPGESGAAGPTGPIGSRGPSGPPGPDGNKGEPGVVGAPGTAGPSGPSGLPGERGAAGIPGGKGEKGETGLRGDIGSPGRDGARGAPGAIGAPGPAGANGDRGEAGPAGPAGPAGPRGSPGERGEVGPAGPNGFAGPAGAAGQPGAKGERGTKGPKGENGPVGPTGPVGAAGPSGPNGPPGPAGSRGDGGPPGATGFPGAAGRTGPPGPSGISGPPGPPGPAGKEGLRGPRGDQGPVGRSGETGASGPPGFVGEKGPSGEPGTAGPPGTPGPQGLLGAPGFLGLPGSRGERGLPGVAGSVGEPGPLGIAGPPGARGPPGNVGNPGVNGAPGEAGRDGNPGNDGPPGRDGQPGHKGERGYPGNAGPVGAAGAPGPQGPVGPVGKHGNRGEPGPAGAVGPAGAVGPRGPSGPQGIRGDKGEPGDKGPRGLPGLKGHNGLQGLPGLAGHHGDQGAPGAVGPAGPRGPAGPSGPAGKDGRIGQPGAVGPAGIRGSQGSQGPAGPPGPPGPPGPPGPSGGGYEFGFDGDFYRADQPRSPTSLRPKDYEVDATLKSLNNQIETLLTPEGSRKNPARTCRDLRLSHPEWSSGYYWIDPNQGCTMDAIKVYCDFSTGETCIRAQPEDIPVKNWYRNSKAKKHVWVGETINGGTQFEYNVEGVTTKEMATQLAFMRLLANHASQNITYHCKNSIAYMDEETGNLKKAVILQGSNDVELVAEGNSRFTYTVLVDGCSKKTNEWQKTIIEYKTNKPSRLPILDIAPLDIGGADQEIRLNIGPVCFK
UniProt P56199, residues 169-363: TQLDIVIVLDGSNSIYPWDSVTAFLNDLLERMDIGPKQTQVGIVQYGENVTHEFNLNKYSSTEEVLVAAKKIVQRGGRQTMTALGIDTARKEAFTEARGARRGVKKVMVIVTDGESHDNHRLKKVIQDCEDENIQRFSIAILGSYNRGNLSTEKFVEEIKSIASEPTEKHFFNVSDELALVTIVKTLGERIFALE

Target: collagen type I (Col I) coating of the I domain binding assay (bovine) (UniProt P02453+P02465)
Test: ELISA; collagens or peptides coated on Immulon 2HB wells (10 µg/ml in 10 mM acetic acid, overnight, 4 °C), blocked with 5% BSA; GST-I domain at 10 µg/mL in TBS (50 mM TRIS, 140 mM NaCl, pH 7.4, 1 mg/mL BSA) with 5 mM MgCl2, 1 h, room temperature; GST detected with HRP conjugate, A450; both purified

Question: How did the binding turn out when “recombinant human integrin α1 I domain (GST fusion) (from UniProt P56199 169-363) (domain or fragment)” was run?
Answer: binds
